Assay results published in patent EP4671261A1 (Daebong LS Co., Ltd., priority 2023, dated 2024).
HELM strings list residues between dots; [ac] is acetyl, [am] amide, other brackets name non-standard units.

Assay: peptide synthesis
Conditions: whole synthesis, 220 nm

PEPTIDE1{Y.G.S.D}$$$$V2.0
purity (crude or final not stated): 95%
